# Data taken from paper PMC5927464 (2018).
# Target: HA-tagged L* protein of TMEV strain DA (HA-L*DA) (Theiler's murine encephalomyelitis virus, strain DA)
# Test: co-IP; Flag-tagged RNase L constructs and N-terminally HA-tagged L* co-expressed in 293T cells; HA-L* immunoprecipitated from lysates with anti-HA antibody and protein A/G magnetic beads; immunoblot with anti-Flag and anti-HA
row,Binder,binding
1,"Flag-MuRNase L—N26, H27, L58, G47, N50, V51 (enzyme, UniProt Q05921 1-735) METPDYNTPQGGTPSAGSQRTVVEDNHLLIKAVQKGDVVRVQQLLEGGANVNACEDTWGWTPLHNAVQAGRVDIVNLLLSHGADPHRRKKNGATPFIIAGIQGDVKLLEILLSCGADVNECDENGFTAFMEAAERGNAEALRFLFAKGANVNLRRQTTKDKRRLKQGGATALMSAAEKGHLEVLRILLNDMKAEVDARDNMGRNALIRTLLNWDCENVEEITSILIQHGADVNVRGERGKTPLIAAVERKHTGLVQMLLSREGINIDARDNEGKTALLIAVDKQLKEIVQLLLEKGADKCDDLVWIARRNHDYHLVKLLLPYVANPDTDPPAGDWSPHSSRWGTALKSLHSMTRPMIGKLKIFIHDDYKIAGTSEGAVYLGIYDNREVAVKVFRENSPRGCKEVSCLRDCGDHSNLVAFYGREDDKGCLYVCVSLCEWTLEEFLRLPREEPVENGEDKFAHSILLSIFEGVQKLHLHGYSHQDLQPQNILIDSKKAVRLADFDQSIRWMGESQMVRRDLEDLGRLVLYVVMKGEIPFETLKTQNDEVLLTMSPDEETKDLIHCLFSPGENVKNCLVDLLGHPFFWTWENRYRTLRNVGNESDIKVRKCKSDLLRLLQHQTLEPPRSFDQWTSKIDKNVMDEMNHFYEKRKKNPYQDTVGDLLKFIRNIGEHINEEKKRGMKEILGDPSRYFQETFPDLVIYIYKKLKETEYRKHFPQPPPRLSVPEAVGPGGIQS",binds weakly
2,"Flag-MuRNase L—R80, Y81 (enzyme, UniProt Q05921 1-735) METPDYNTPQGGTPSAGSQRTVVEDDSSLIKAVQKGDVVRVQQLLEKGADANACEDTWGWTPLHNAVQAGRVDIVNLLLRYGADPHRRKKNGATPFIIAGIQGDVKLLEILLSCGADVNECDENGFTAFMEAAERGNAEALRFLFAKGANVNLRRQTTKDKRRLKQGGATALMSAAEKGHLEVLRILLNDMKAEVDARDNMGRNALIRTLLNWDCENVEEITSILIQHGADVNVRGERGKTPLIAAVERKHTGLVQMLLSREGINIDARDNEGKTALLIAVDKQLKEIVQLLLEKGADKCDDLVWIARRNHDYHLVKLLLPYVANPDTDPPAGDWSPHSSRWGTALKSLHSMTRPMIGKLKIFIHDDYKIAGTSEGAVYLGIYDNREVAVKVFRENSPRGCKEVSCLRDCGDHSNLVAFYGREDDKGCLYVCVSLCEWTLEEFLRLPREEPVENGEDKFAHSILLSIFEGVQKLHLHGYSHQDLQPQNILIDSKKAVRLADFDQSIRWMGESQMVRRDLEDLGRLVLYVVMKGEIPFETLKTQNDEVLLTMSPDEETKDLIHCLFSPGENVKNCLVDLLGHPFFWTWENRYRTLRNVGNESDIKVRKCKSDLLRLLQHQTLEPPRSFDQWTSKIDKNVMDEMNHFYEKRKKNPYQDTVGDLLKFIRNIGEHINEEKKRGMKEILGDPSRYFQETFPDLVIYIYKKLKETEYRKHFPQPPPRLSVPEAVGPGGIQS",binds
3,"Flag-MuRNase L W60A (enzyme, UniProt Q05921 1-735) METPDYNTPQGGTPSAGSQRTVVEDDSSLIKAVQKGDVVRVQQLLEKGADANACEDTWGATPLHNAVQAGRVDIVNLLLSHGADPHRRKKNGATPFIIAGIQGDVKLLEILLSCGADVNECDENGFTAFMEAAERGNAEALRFLFAKGANVNLRRQTTKDKRRLKQGGATALMSAAEKGHLEVLRILLNDMKAEVDARDNMGRNALIRTLLNWDCENVEEITSILIQHGADVNVRGERGKTPLIAAVERKHTGLVQMLLSREGINIDARDNEGKTALLIAVDKQLKEIVQLLLEKGADKCDDLVWIARRNHDYHLVKLLLPYVANPDTDPPAGDWSPHSSRWGTALKSLHSMTRPMIGKLKIFIHDDYKIAGTSEGAVYLGIYDNREVAVKVFRENSPRGCKEVSCLRDCGDHSNLVAFYGREDDKGCLYVCVSLCEWTLEEFLRLPREEPVENGEDKFAHSILLSIFEGVQKLHLHGYSHQDLQPQNILIDSKKAVRLADFDQSIRWMGESQMVRRDLEDLGRLVLYVVMKGEIPFETLKTQNDEVLLTMSPDEETKDLIHCLFSPGENVKNCLVDLLGHPFFWTWENRYRTLRNVGNESDIKVRKCKSDLLRLLQHQTLEPPRSFDQWTSKIDKNVMDEMNHFYEKRKKNPYQDTVGDLLKFIRNIGEHINEEKKRGMKEILGDPSRYFQETFPDLVIYIYKKLKETEYRKHFPQPPPRLSVPEAVGPGGIQS",binds
4,"Flag-MuRNase L K89A (enzyme, UniProt Q05921 1-735) METPDYNTPQGGTPSAGSQRTVVEDDSSLIKAVQKGDVVRVQQLLEKGADANACEDTWGWTPLHNAVQAGRVDIVNLLLSHGADPHRRAKNGATPFIIAGIQGDVKLLEILLSCGADVNECDENGFTAFMEAAERGNAEALRFLFAKGANVNLRRQTTKDKRRLKQGGATALMSAAEKGHLEVLRILLNDMKAEVDARDNMGRNALIRTLLNWDCENVEEITSILIQHGADVNVRGERGKTPLIAAVERKHTGLVQMLLSREGINIDARDNEGKTALLIAVDKQLKEIVQLLLEKGADKCDDLVWIARRNHDYHLVKLLLPYVANPDTDPPAGDWSPHSSRWGTALKSLHSMTRPMIGKLKIFIHDDYKIAGTSEGAVYLGIYDNREVAVKVFRENSPRGCKEVSCLRDCGDHSNLVAFYGREDDKGCLYVCVSLCEWTLEEFLRLPREEPVENGEDKFAHSILLSIFEGVQKLHLHGYSHQDLQPQNILIDSKKAVRLADFDQSIRWMGESQMVRRDLEDLGRLVLYVVMKGEIPFETLKTQNDEVLLTMSPDEETKDLIHCLFSPGENVKNCLVDLLGHPFFWTWENRYRTLRNVGNESDIKVRKCKSDLLRLLQHQTLEPPRSFDQWTSKIDKNVMDEMNHFYEKRKKNPYQDTVGDLLKFIRNIGEHINEEKKRGMKEILGDPSRYFQETFPDLVIYIYKKLKETEYRKHFPQPPPRLSVPEAVGPGGIQS",binds
5,"Flag-MuRNase L F126A (enzyme, UniProt Q05921 1-735) METPDYNTPQGGTPSAGSQRTVVEDDSSLIKAVQKGDVVRVQQLLEKGADANACEDTWGWTPLHNAVQAGRVDIVNLLLSHGADPHRRKKNGATPFIIAGIQGDVKLLEILLSCGADVNECDENGATAFMEAAERGNAEALRFLFAKGANVNLRRQTTKDKRRLKQGGATALMSAAEKGHLEVLRILLNDMKAEVDARDNMGRNALIRTLLNWDCENVEEITSILIQHGADVNVRGERGKTPLIAAVERKHTGLVQMLLSREGINIDARDNEGKTALLIAVDKQLKEIVQLLLEKGADKCDDLVWIARRNHDYHLVKLLLPYVANPDTDPPAGDWSPHSSRWGTALKSLHSMTRPMIGKLKIFIHDDYKIAGTSEGAVYLGIYDNREVAVKVFRENSPRGCKEVSCLRDCGDHSNLVAFYGREDDKGCLYVCVSLCEWTLEEFLRLPREEPVENGEDKFAHSILLSIFEGVQKLHLHGYSHQDLQPQNILIDSKKAVRLADFDQSIRWMGESQMVRRDLEDLGRLVLYVVMKGEIPFETLKTQNDEVLLTMSPDEETKDLIHCLFSPGENVKNCLVDLLGHPFFWTWENRYRTLRNVGNESDIKVRKCKSDLLRLLQHQTLEPPRSFDQWTSKIDKNVMDEMNHFYEKRKKNPYQDTVGDLLKFIRNIGEHINEEKKRGMKEILGDPSRYFQETFPDLVIYIYKKLKETEYRKHFPQPPPRLSVPEAVGPGGIQS",binds
6,"Flag-MuRNase L E131A (enzyme, UniProt Q05921 1-735) METPDYNTPQGGTPSAGSQRTVVEDDSSLIKAVQKGDVVRVQQLLEKGADANACEDTWGWTPLHNAVQAGRVDIVNLLLSHGADPHRRKKNGATPFIIAGIQGDVKLLEILLSCGADVNECDENGFTAFMAAAERGNAEALRFLFAKGANVNLRRQTTKDKRRLKQGGATALMSAAEKGHLEVLRILLNDMKAEVDARDNMGRNALIRTLLNWDCENVEEITSILIQHGADVNVRGERGKTPLIAAVERKHTGLVQMLLSREGINIDARDNEGKTALLIAVDKQLKEIVQLLLEKGADKCDDLVWIARRNHDYHLVKLLLPYVANPDTDPPAGDWSPHSSRWGTALKSLHSMTRPMIGKLKIFIHDDYKIAGTSEGAVYLGIYDNREVAVKVFRENSPRGCKEVSCLRDCGDHSNLVAFYGREDDKGCLYVCVSLCEWTLEEFLRLPREEPVENGEDKFAHSILLSIFEGVQKLHLHGYSHQDLQPQNILIDSKKAVRLADFDQSIRWMGESQMVRRDLEDLGRLVLYVVMKGEIPFETLKTQNDEVLLTMSPDEETKDLIHCLFSPGENVKNCLVDLLGHPFFWTWENRYRTLRNVGNESDIKVRKCKSDLLRLLQHQTLEPPRSFDQWTSKIDKNVMDEMNHFYEKRKKNPYQDTVGDLLKFIRNIGEHINEEKKRGMKEILGDPSRYFQETFPDLVIYIYKKLKETEYRKHFPQPPPRLSVPEAVGPGGIQS",binds
7,"Flag-MuRNase L R155A (enzyme, UniProt Q05921 1-735) METPDYNTPQGGTPSAGSQRTVVEDDSSLIKAVQKGDVVRVQQLLEKGADANACEDTWGWTPLHNAVQAGRVDIVNLLLSHGADPHRRKKNGATPFIIAGIQGDVKLLEILLSCGADVNECDENGFTAFMEAAERGNAEALRFLFAKGANVNLRAQTTKDKRRLKQGGATALMSAAEKGHLEVLRILLNDMKAEVDARDNMGRNALIRTLLNWDCENVEEITSILIQHGADVNVRGERGKTPLIAAVERKHTGLVQMLLSREGINIDARDNEGKTALLIAVDKQLKEIVQLLLEKGADKCDDLVWIARRNHDYHLVKLLLPYVANPDTDPPAGDWSPHSSRWGTALKSLHSMTRPMIGKLKIFIHDDYKIAGTSEGAVYLGIYDNREVAVKVFRENSPRGCKEVSCLRDCGDHSNLVAFYGREDDKGCLYVCVSLCEWTLEEFLRLPREEPVENGEDKFAHSILLSIFEGVQKLHLHGYSHQDLQPQNILIDSKKAVRLADFDQSIRWMGESQMVRRDLEDLGRLVLYVVMKGEIPFETLKTQNDEVLLTMSPDEETKDLIHCLFSPGENVKNCLVDLLGHPFFWTWENRYRTLRNVGNESDIKVRKCKSDLLRLLQHQTLEPPRSFDQWTSKIDKNVMDEMNHFYEKRKKNPYQDTVGDLLKFIRNIGEHINEEKKRGMKEILGDPSRYFQETFPDLVIYIYKKLKETEYRKHFPQPPPRLSVPEAVGPGGIQS",binds
8,"Flag-MuRNase L R309A (enzyme, UniProt Q05921 1-735) METPDYNTPQGGTPSAGSQRTVVEDDSSLIKAVQKGDVVRVQQLLEKGADANACEDTWGWTPLHNAVQAGRVDIVNLLLSHGADPHRRKKNGATPFIIAGIQGDVKLLEILLSCGADVNECDENGFTAFMEAAERGNAEALRFLFAKGANVNLRRQTTKDKRRLKQGGATALMSAAEKGHLEVLRILLNDMKAEVDARDNMGRNALIRTLLNWDCENVEEITSILIQHGADVNVRGERGKTPLIAAVERKHTGLVQMLLSREGINIDARDNEGKTALLIAVDKQLKEIVQLLLEKGADKCDDLVWIARANHDYHLVKLLLPYVANPDTDPPAGDWSPHSSRWGTALKSLHSMTRPMIGKLKIFIHDDYKIAGTSEGAVYLGIYDNREVAVKVFRENSPRGCKEVSCLRDCGDHSNLVAFYGREDDKGCLYVCVSLCEWTLEEFLRLPREEPVENGEDKFAHSILLSIFEGVQKLHLHGYSHQDLQPQNILIDSKKAVRLADFDQSIRWMGESQMVRRDLEDLGRLVLYVVMKGEIPFETLKTQNDEVLLTMSPDEETKDLIHCLFSPGENVKNCLVDLLGHPFFWTWENRYRTLRNVGNESDIKVRKCKSDLLRLLQHQTLEPPRSFDQWTSKIDKNVMDEMNHFYEKRKKNPYQDTVGDLLKFIRNIGEHINEEKKRGMKEILGDPSRYFQETFPDLVIYIYKKLKETEYRKHFPQPPPRLSVPEAVGPGGIQS",binds

# Results are given in words; binding and its absence hold for the method and conditions named. Binding seen in cells or lysates may run through a third protein. Binding can be weak; no strength is given. Where a sequence is shown, tags or fusion partners need not be part of it.
